± gives the standard deviation of the averaged measurements. Differences between knockout arms are mostly noise.
System: HCC-38
Experiment: relative cell number vs DMSO control (72 h) (% of DMSO); higher = less growth inhibition (more cells)
Protocol: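 QMAP-Seq: a pool of 5 breast cancer cell lines (ZR-75-1, SKBR3, HCC-38, MDA-MB-231, BT-20), each carrying 12 doxycycline-inducible Cas9 sgRNA perturbations (11 knockouts plus non-targeting sgNT), was treated with compounds for 72 h at four 10-fold doses (10 nM-10 uM or 1 nM-1 uM range). Barcodes were amplified and sequenced, and cell number was interpolated from 293T spike-in standard curves. The result is expressed as % of the median of DMSO wells. Two biological replicates.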

[1] = sgRNA knockout: sgATF3, 1000 nM
[2] = sgRNA knockout: sgATF4, 1000 nM
[3] = sgRNA knockout: sgATF6, 1000 nM
[4] = sgRNA knockout: sgATG7, 1000 nM
[5] = sgRNA knockout: sgERN1, 1000 nM
[6] = sgRNA knockout: sgHSF1, 1000 nM
[7] = sgRNA knockout: sgHSF2, 1000 nM
[8] = sgRNA knockout: sgKEAP1, 100 nM
[9] = sgRNA knockout: sgKEAP1, 1000 nM
[10] = sgRNA knockout: sgNFE2L2, 10 nM
[11] = sgRNA knockout: sgNFE2L2, 100 nM
[12] = sgRNA knockout: sgNFE2L2, 1000 nM
[13] = sgRNA knockout: sgSLC35F2, 1 nM
[14] = sgRNA knockout: sgSLC35F2, 10 nM
[15] = sgRNA knockout: sgSLC35F2, 100 nM
[16] = sgRNA knockout: sgSLC35F2, 1000 nM
[17] = sgRNA knockout: sgXBP1, 1000 nM

Compound `C[C@]12CC[C@H](O)CC1=CC[C@@H]1[C@@H]2CC[C@]2(C)C(c3cccnc3)=CC[C@@H]12` [Abiraterone] has a relative cell number (sgRNA knockout: sgATF3, 1 nM) of 112 ± 13, a relative cell number (sgRNA knockout: sgATF3, 10 nM) of 111 ± 4.9 and a relative cell number (sgRNA knockout: sgATF3, 100 nM) of 103 ± 1.2. The relative cell number [1] was 121 ± 13, the relative cell number (sgRNA knockout: sgATF4, 1 nM) was 104 ± 20 and the relative cell number (sgRNA knockout: sgATF4, 10 nM) was 102 ± 4.8. It also gave a relative cell number (sgRNA knockout: sgATF4, 100 nM) of 90.5 ± 2.2, a relative cell number [2] of 111 ± 10 and a relative cell number (sgRNA knockout: sgATF6, 1 nM) of 114 ± 5.7. For the same compound, the relative cell number (sgRNA knockout: sgATF6, 10 nM) was 123 ± 2.3, the relative cell number (sgRNA knockout: sgATF6, 100 nM) was 119 ± 17 and the relative cell number [3] was 118 ± 9.6. It also gave a relative cell number (sgRNA knockout: sgATG7, 1 nM) of 107 ± 17, a relative cell number (sgRNA knockout: sgATG7, 10 nM) of 103 ± 6 and a relative cell number (sgRNA knockout: sgATG7, 100 nM) of 97.1 ± 4.2. It also gave a relative cell number [4] of 112 ± 20, a relative cell number (sgRNA knockout: sgERN1, 1 nM) of 116 ± 15 and a relative cell number (sgRNA knockout: sgERN1, 10 nM) of 101 ± 2.1. It also gave a relative cell number (sgRNA knockout: sgERN1, 100 nM) of 109 ± 3.2, a relative cell number [5] of 118 ± 3.4 and a relative cell number (sgRNA knockout: sgHSF1, 1 nM) of 119 ± 23. The relative cell number (sgRNA knockout: sgHSF1, 10 nM) was 110 ± 9.5, the relative cell number (sgRNA knockout: sgHSF1, 100 nM) was 121 ± 22 and the relative cell number [6] was 120 ± 15. The relative cell number (sgRNA knockout: sgHSF2, 1 nM) was 114 ± 14, the relative cell number (sgRNA knockout: sgHSF2, 10 nM) was 111 ± 17 and the relative cell number (sgRNA knockout: sgHSF2, 100 nM) was 105 ± 7.8. For the same compound, the relative cell number [7] was 117 ± 12, the relative cell number (sgRNA knockout: sgKEAP1, 1 nM) was 121.2 ± 0.83 and the relative cell number (sgRNA knockout: sgKEAP1, 10 nM) was 126 ± 31. It also gave a relative cell number [8] of 126 ± 8.2, a relative cell number [9] of 112 ± 21 and a relative cell number (sgRNA knockout: sgNFE2L2, 1 nM) of 97.3 ± 15. The relative cell number [10] was 96 ± 3.3, the relative cell number [11] was 91.2 ± 3.4 and the relative cell number [12] was 110 ± 2.7. For the same compound, the relative cell number [13] was 105 ± 4.2, the relative cell number [14] was 106 ± 7.7 and the relative cell number [15] was 101 ± 12. For the same compound, the relative cell number [16] was 101 ± 19, the relative cell number (sgRNA knockout: sgXBP1, 1 nM) was 97.4 ± 9.3 and the relative cell number (sgRNA knockout: sgXBP1, 10 nM) was 103 ± 1.9. It also gave a relative cell number (sgRNA knockout: sgXBP1, 100 nM) of 94.7 ± 3.5 and a relative cell number [17] of 119 ± 13.

With `CC(C)(C#N)c1cc(Cn2cncn2)cc(C(C)(C)C#N)c1` [Anastrozole] the relative cell number (sgRNA knockout: sgATF3, 1 nM) was 107 ± 3.4, the relative cell number (sgRNA knockout: sgATF3, 10 nM) was 110 ± 18 and the relative cell number (sgRNA knockout: sgATF3, 100 nM) was 99.9 ± 3.4. It also gave a relative cell number [1] of 105.95 ± 0.069, a relative cell number (sgRNA knockout: sgATF4, 1 nM) of 102 ± 19 and a relative cell number (sgRNA knockout: sgATF4, 10 nM) of 114 ± 3. For the same compound, the relative cell number (sgRNA knockout: sgATF4, 100 nM) was 102 ± 5, the relative cell number [2] was 111.9 ± 0.71 and the relative cell number (sgRNA knockout: sgATF6, 1 nM) was 109 ± 8.3. It also gave a relative cell number (sgRNA knockout: sgATF6, 10 nM) of 127 ± 19, a relative cell number (sgRNA knockout: sgATF6, 100 nM) of 118 ± 8.1 and a relative cell number [3] of 109 ± 5.9. It also gave a relative cell number (sgRNA knockout: sgATG7, 1 nM) of 107 ± 12, a relative cell number (sgRNA knockout: sgATG7, 10 nM) of 108 ± 12 and a relative cell number (sgRNA knockout: sgATG7, 100 nM) of 102.6 ± 0.84. For the same compound, the relative cell number [4] was 113 ± 15, the relative cell number (sgRNA knockout: sgERN1, 1 nM) was 103 ± 21 and the relative cell number (sgRNA knockout: sgERN1, 10 nM) was 110 ± 18. The relative cell number (sgRNA knockout: sgERN1, 100 nM) was 104 ± 9.6, the relative cell number [5] was 104 ± 2.6 and the relative cell number (sgRNA knockout: sgHSF1, 1 nM) was 106 ± 31. The relative cell number (sgRNA knockout: sgHSF1, 10 nM) was 141 ± 40, the relative cell number (sgRNA knockout: sgHSF1, 100 nM) was 114 ± 7 and the relative cell number [6] was 106.3 ± 0.66. For the same compound, the relative cell number (sgRNA knockout: sgHSF2, 1 nM) was 116 ± 4.6, the relative cell number (sgRNA knockout: sgHSF2, 10 nM) was 129 ± 14 and the relative cell number (sgRNA knockout: sgHSF2, 100 nM) was 110 ± 5.3. For the same compound, the relative cell number [7] was 104 ± 14, the relative cell number (sgRNA knockout: sgKEAP1, 1 nM) was 117 ± 12 and the relative cell number (sgRNA knockout: sgKEAP1, 10 nM) was 127 ± 26. The relative cell number [8] was 114 ± 15, the relative cell number [9] was 99.3 ± 5.4 and the relative cell number (sgRNA knockout: sgNFE2L2, 1 nM) was 97.4 ± 9.8. The relative cell number [10] was 112 ± 6.6, the relative cell number [11] was 100 ± 12 and the relative cell number [12] was 115 ± 7.8. The relative cell number [13] was 102 ± 3.9, the relative cell number [14] was 111 ± 15 and the relative cell number [15] was 98.6 ± 12. It also gave a relative cell number [16] of 98.3 ± 8.9, a relative cell number (sgRNA knockout: sgXBP1, 1 nM) of 101 ± 6.8 and a relative cell number (sgRNA knockout: sgXBP1, 10 nM) of 118 ± 5.2. It also gave a relative cell number (sgRNA knockout: sgXBP1, 100 nM) of 90.8 ± 7.8 and a relative cell number [17] of 113 ± 6.5.

`C[C@H]1CCC/C=C/[C@@H]2C[C@H](O)C[C@H]2[C@H](O)/C=C/C(=O)O1` [BrefeldinA] gave a relative cell number (sgRNA knockout: sgATF3, 10 nM) of 91.4 ± 12, a relative cell number (sgRNA knockout: sgATF3, 100 nM) of 56.1 ± 6.3 and a relative cell number [1] of 38.8 ± 13. It also gave a relative cell number (sgRNA knockout: sgATF3, 10000 nM) of 25.1 ± 0.28, a relative cell number (sgRNA knockout: sgATF4, 10 nM) of 95.6 ± 19 and a relative cell number (sgRNA knockout: sgATF4, 100 nM) of 46.8 ± 2.1. The relative cell number [2] was 37.4 ± 12, the relative cell number (sgRNA knockout: sgATF4, 10000 nM) was 24.1 ± 3.3 and the relative cell number (sgRNA knockout: sgATF6, 10 nM) was 89.8 ± 19. The relative cell number (sgRNA knockout: sgATF6, 100 nM) was 49.4 ± 4.6, the relative cell number [3] was 44.1 ± 14 and the relative cell number (sgRNA knockout: sgATF6, 10000 nM) was 28.5 ± 8.7. For the same compound, the relative cell number (sgRNA knockout: sgATG7, 10 nM) was 88.9 ± 16, the relative cell number (sgRNA knockout: sgATG7, 100 nM) was 52.3 ± 2.5 and the relative cell number [4] was 35.1 ± 15. For the same compound, the relative cell number (sgRNA knockout: sgATG7, 10000 nM) was 25.7 ± 3.7, the relative cell number (sgRNA knockout: sgERN1, 10 nM) was 97.2 ± 26 and the relative cell number (sgRNA knockout: sgERN1, 100 nM) was 61.37 ± 0.53. The relative cell number [5] was 37.5 ± 9.3, the relative cell number (sgRNA knockout: sgERN1, 10000 nM) was 22.64 ± 0.038 and the relative cell number (sgRNA knockout: sgHSF1, 10 nM) was 97.3 ± 13. For the same compound, the relative cell number (sgRNA knockout: sgHSF1, 100 nM) was 44.4 ± 20, the relative cell number [6] was 32.9 ± 6.7 and the relative cell number (sgRNA knockout: sgHSF1, 10000 nM) was 22.7 ± 12. For the same compound, the relative cell number (sgRNA knockout: sgHSF2, 10 nM) was 92 ± 3.7, the relative cell number (sgRNA knockout: sgHSF2, 100 nM) was 56.8 ± 3.8 and the relative cell number [7] was 39.6 ± 8.7. For the same compound, the relative cell number (sgRNA knockout: sgHSF2, 10000 nM) was 23.3 ± 6.6, the relative cell number (sgRNA knockout: sgKEAP1, 10 nM) was 87.9 ± 13 and the relative cell number [8] was 50.3 ± 15. It also gave a relative cell number [9] of 36.7 ± 0.64, a relative cell number (sgRNA knockout: sgKEAP1, 10000 nM) of 28.1 ± 8.5 and a relative cell number [10] of 88.1 ± 7.7. It also gave a relative cell number [11] of 51.6 ± 9.3, a relative cell number [12] of 36.6 ± 13 and a relative cell number (sgRNA knockout: sgNFE2L2, 10000 nM) of 19.4 ± 2.4. It also gave a relative cell number [14] of 93.5 ± 15, a relative cell number [15] of 57.9 ± 8.5 and a relative cell number [16] of 37.7 ± 17. The relative cell number (sgRNA knockout: sgSLC35F2, 10000 nM) was 23 ± 6.6, the relative cell number (sgRNA knockout: sgXBP1, 10 nM) was 96.7 ± 21 and the relative cell number (sgRNA knockout: sgXBP1, 100 nM) was 54.4 ± 14. The relative cell number [17] was 37.8 ± 8 and the relative cell number (sgRNA knockout: sgXBP1, 10000 nM) was 22.8 ± 5.3.
